To fix the notation:
B1: tRNA (parent)
chain: GUUCCGUUGGCGUAAUGGUAACGCGUCUCCCUCCUAAGGAGAAGACUGCGGGUUCGAGUCCCGUACGGAACG

Variants at the background level are over-represented here. Some results are limits rather than exact numbers.

The data set covers variants of B1. Kind of data set: yeast fitness relative to wild type (ratio to wild type); higher = fitter; tRNA-Arg(CCU), competitive growth, 37 C, YPD. Summed up: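 For this measurement, the tRNA-Arg(CCU) gene was varied by chemical synthesis at a 3% per-site mutation rate across 69 sites, and each variant was placed at the native genomic locus in Saccharomyces cerevisiae. The pooled strains went through a 24-hour competition in YPD at 37°C in six parallel replicates, with amplicons from start and end populations read by 100-nucleotide paired-end sequencing. Darwinian fitness relative to wild type followed from the change in each genotype's frequency. Genotypes needed ≥ 100 starting reads, and estimates < 0.5 were set to 0.5.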
As for C5U G25U U64G, the yeast fitness is not above 0.5. Then G17C C34G A37C C62A A69G, with not above 0.5; and C4G A14G G38A G56C A70G, with not above 0.5. In the case of C5G C30U C49U U54A, the yeast fitness is not above 0.5. G17C C34G A37C C62A G67A: the yeast fitness was not above 0.5. Then U8C G25C G38A G58A C60U C62U, with not above 0.5; and C5G G12C A65C, with not above 0.5. With C4G U16C, the yeast fitness came to 0.806. Then C4U G6A U13C U28C U59A C61A C66U G68C, with not above 0.5. In the case of C11U U59A C60U it was 0.543.

As to A20G G38A, the yeast fitness worked out at 0.912. Then A14C G25C C66U, with 0.531. Then A20U U54C, with 0.758. In the case of C5A C30A C34U C46U it was not above 0.5; in that of U8A C30U, 0.665; in that of A15C C27U G52A C61A A70U, not above 0.5. Take G41A C60U C61U: the yeast fitness was not above 0.5.

Take U16G U26G A45U A70G: the yeast fitness was not above 0.5. G6C G41C C49G C55U: the yeast fitness was not above 0.5. Turning to G10A C31U G38C G63A A65G G68C A69G, the yeast fitness was not above 0.5. In the case of A21G C34A C61A it was not above 0.5; in that of C27A C46A C49A C55A, not above 0.5. In the case of A15C U35G A45G it was not above 0.5.

In the case of G10C C29U A40U A65U, the yeast fitness is not above 0.5. As for U3A U8A G25C C30A G50C C55G C60A, the yeast fitness was not above 0.5. In the case of A14C A21G C29A C61U it was not above 0.5; in that of U28A A40U C61G, not above 0.5; in that of A36U A45C C55U, not above 0.5. In the case of C29U A42U A45C it was 0.51; in that of C4U G48C G52C A57C G58A, not above 0.5; in that of C22U G23A A65U, not above 0.5. Regarding U2C U16C C22A C29A G51C, the yeast fitness is not above 0.5. As to C5A C11G C33A G38A G67A, the yeast fitness is not above 0.5. In the case of U3A A15C A21U it was not above 0.5; in that of U7A U35G, not above 0.5; in that of G38C U47A A65G, not above 0.5. Then U7A A36U A45G U47A A69C A70U, with not above 0.5; and G38A U59G A69G, with not above 0.5; and G6C A45G C49G, with not above 0.5. Turning to U7C C22U C29G G56A A70U, the yeast fitness is not above 0.5. Regarding G10C C22G C33U A36C A40U, the yeast fitness is not above 0.5. For G9A C24G C34G A45C A65G, the yeast fitness was not above 0.5. Then C24A U26C U54A C60U A69C, with 0.819; and G9C C11G G12C U28C C61U A65G, with not above 0.5. Then C22U A40U C61G, with not above 0.5. Then C27G C49A G58A C62G, with not above 0.5; and U7G G9A C31G C33U A36G, with not above 0.5; and G56C G58A G63C A65U, with not above 0.5. On to A15G C55G G56U, for which the yeast fitness is not above 0.5.

Take G6C C24U: the yeast fitness was 0.751. In the case of U8A A40U A70C it was 0.547; in that of A21C C30A C62U A70U, not above 0.5; in that of A21U G67U, 0.742. In the case of G12A C30G C31U C46U C55U U59A C62A it was not above 0.5; in that of C30G C33G A70G, not above 0.5. Then U3A G23A C49A, with not above 0.5. Consider G6C C29G A40U, for which the yeast fitness was not above 0.5. In the case of A20C C34A A37G, the yeast fitness was not above 0.5. Then U13G G39C C49G A65G, with not above 0.5; and G6A G9C C11G C34U G48A, with not above 0.5; and U2G G17C C33U U47A A69U, with not above 0.5.

Take C5U G25C U35C A42U C62G: the yeast fitness is not above 0.5.

Regarding U19A U32C G67U A69C, the yeast fitness was not above 0.5.

Regarding C61U G68C, the yeast fitness was found to be 0.68. In the case of A14U C34G G56C it was not above 0.5; in that of C4A A21C C22G, not above 0.5; in that of A40G C49A C55A, not above 0.5.

Consider C33G C46U A65U, for which the yeast fitness was not above 0.5.

G6C C33G G39C: the yeast fitness is not above 0.5.

For the variant U7A U19C A20C C33U U35A C49A, the yeast fitness is not above 0.5. In the case of G17A C29U G67A it was 0.553; in that of U3G C24A C30U A69U, not above 0.5. In the case of C4G U32A C61A it was not above 0.5. Then U2C C4U G12A C62U, with not above 0.5; and C27A C49U C61A, with not above 0.5; and C34G G44C G48C A70C, with not above 0.5. G6A A20C C31U C33G: the yeast fitness was not above 0.5. In the case of C5A U13G it was 0.841; in that of U7A U26C C34A C66A, not above 0.5. Then C4U U26A A37C C49U G56A, with not above 0.5; and U19C C34U G44A, with not above 0.5; and A14G A37C A65G, with 0.659. Then U2G G9A A69U, with 0.577. As to A20G U35A A37G A43U A45C, the yeast fitness was not above 0.5. Then C11A U35G U54C G67A, with not above 0.5; and C5U A20U C22U G56C, with not above 0.5; and G10U C11A G25C C29U A65C A70U, with not above 0.5.

On to A15U G38C G41C A65G, for which the yeast fitness was not above 0.5. G9C A20C A40U C61A G68A: the yeast fitness was not above 0.5. In the case of U13C C46A G52A G63C it was not above 0.5. Turning to C30A A40C C46U C60U C66U, the yeast fitness was not above 0.5.

As to U19C A43U C62G, the yeast fitness is not above 0.5. Then C11U A14C C31U A36U A69C, with not above 0.5. Consider U7G U35G, for which the yeast fitness amounted to 0.536.

Regarding A14G C29G C31U, the yeast fitness worked out at 0.6. As for G10C U19C C22A C34G, the yeast fitness is not above 0.5. Then C27G A65C G67A, with not above 0.5; and U13A C33A A36U A70C, with 0.518. Then C4G C11U A21C G39C A42U G48C, with not above 0.5; and G25A A36C, with 0.52; and U7C C27U A45C C55U, with not above 0.5.

As to A43U G48C U54C C60A U64A, the yeast fitness was not above 0.5.

With A15C C31U C34G, the yeast fitness is not above 0.5. Take A15C C33A C55G C61G: the yeast fitness was not above 0.5.

In the case of A36C A42U A65U, the yeast fitness came to 0.647. Then U3A G12A U19A C61A C66U A69C, with not above 0.5; and A15U G58C U59C C66G, with not above 0.5. In the case of C33U A65U it was 0.816. In the case of C5U A15C U16C C27U A42C it was not above 0.5. As to G6C A21G C55A C61A, the yeast fitness is not above 0.5.

With C22U C33G, the yeast fitness came to 0.551. In the case of C33U A69C it was 0.726. Then A14G U28G G41C U64C, with not above 0.5. In the case of U7A A20G G23A U26G C62U it was not above 0.5; in that of U16G C30U C33G C55U G68U, not above 0.5; in that of C11G C22U C30A U53A G58A, not above 0.5.

C11U A45U G58C A69C: the yeast fitness was not above 0.5. In the case of C24U C49G G63A A69C it was not above 0.5. Then A14U C31A C46U G48A C49U, with not above 0.5. For U2C C31G C62A C66U, the yeast fitness is not above 0.5.

In the case of C34U A36G A57G, the yeast fitness was not above 0.5. In the case of U16A C61U G67A G68U it was not above 0.5; in that of C29G G68U, 0.68; in that of A15C U16C A37C G50A U53A, not above 0.5. In the case of U2A A20U A21C C27U C33A it was not above 0.5; in that of C27A C49A G50C G56U, not above 0.5; in that of A15G G18A C24G U47C C66U A69U, not above 0.5. As for U3A U8C U32C, the yeast fitness was not above 0.5. Then U16C C33U G68C, with not above 0.5; and A21G A37G, with 0.692; and C33A A37G G39C C55U C62G, with not above 0.5. In the case of A20U G52A C66U it was not above 0.5. In the case of U19C C24U it was 0.969. As for A43G G52C C62U G63A, the yeast fitness was not above 0.5. Then U19A C46U C55G, with not above 0.5; and C5U A14U G41C, with not above 0.5.

As to C30G G41C C62A, the yeast fitness is not above 0.5. In the case of C27A C34A it was 0.68; in that of G23C C46A G56A C62U A69U, not above 0.5.

C11G C27G C55A C66G G67U: the yeast fitness was not above 0.5. Then C5U U35C, with 0.811; and U3A U7C G68A, with not above 0.5.

Regarding U7A G10A A20C C29A, the yeast fitness turned out to be 0.543. In the case of C22U A37U U47C it was not above 0.5; in that of G6C C27G C31G, not above 0.5; in that of U8A A14G C49G, 0.538. Then C31G G41A A43C G51C, with 0.562; and U2A A20G G23C C55U, with not above 0.5. Then A21U C24G C62G, with not above 0.5; and G50A U59C C66U, with not above 0.5; and A20U G23A C31U G39A, with not above 0.5. For the variant C11A A43U C62G A70U, the yeast fitness is not above 0.5. Then C5U C22G C27U, with 0.612. Then A15G U26G C30U U47G A57G A69U, with not above 0.5. With C24U A37G G44C, the yeast fitness was not above 0.5.

On to A21C C24A A65C, for which the yeast fitness is not above 0.5.

With C24G G52C, the yeast fitness was not above 0.5.

For the variant C22U C29A U32A C55G A65U G67A, the yeast fitness is not above 0.5. Then C29G C46U A57G, with 0.642; and U16A C24G C29G C31G A42G C61G, with not above 0.5. In the case of C4A A57U G58C it was not above 0.5; in that of U2G C4A U16C C62G, not above 0.5. In the case of A14U U32C C49U A57C it was not above 0.5; in that of U16A C49A G50A G68C, not above 0.5.

For C11U A42C A69U, the yeast fitness was determined as 0.773. In the case of G51C A65C C66G it was not above 0.5; in that of G6C C11A C34G A65U, not above 0.5.

The values above are taken from the RNAGym collection of RNA variant scans (doi:10.1126/science.aae0568).
